The source of these data is PMC5996148.

The chains behind the UniProt entries cited, without tags or fusion partners. Where a name states a change or a piece, a line headed by the entry shows the natural chain unless it says otherwise.
UniProt Q13601: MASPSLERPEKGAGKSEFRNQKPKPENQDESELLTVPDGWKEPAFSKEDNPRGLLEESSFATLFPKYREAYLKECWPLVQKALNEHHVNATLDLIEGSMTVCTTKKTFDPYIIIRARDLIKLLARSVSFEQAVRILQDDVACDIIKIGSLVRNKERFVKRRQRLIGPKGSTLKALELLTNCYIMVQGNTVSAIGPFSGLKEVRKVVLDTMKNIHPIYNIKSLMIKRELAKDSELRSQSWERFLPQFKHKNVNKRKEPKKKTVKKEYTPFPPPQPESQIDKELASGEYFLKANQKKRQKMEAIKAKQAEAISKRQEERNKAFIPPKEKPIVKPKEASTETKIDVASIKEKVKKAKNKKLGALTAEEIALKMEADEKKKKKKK
UniProt P11047: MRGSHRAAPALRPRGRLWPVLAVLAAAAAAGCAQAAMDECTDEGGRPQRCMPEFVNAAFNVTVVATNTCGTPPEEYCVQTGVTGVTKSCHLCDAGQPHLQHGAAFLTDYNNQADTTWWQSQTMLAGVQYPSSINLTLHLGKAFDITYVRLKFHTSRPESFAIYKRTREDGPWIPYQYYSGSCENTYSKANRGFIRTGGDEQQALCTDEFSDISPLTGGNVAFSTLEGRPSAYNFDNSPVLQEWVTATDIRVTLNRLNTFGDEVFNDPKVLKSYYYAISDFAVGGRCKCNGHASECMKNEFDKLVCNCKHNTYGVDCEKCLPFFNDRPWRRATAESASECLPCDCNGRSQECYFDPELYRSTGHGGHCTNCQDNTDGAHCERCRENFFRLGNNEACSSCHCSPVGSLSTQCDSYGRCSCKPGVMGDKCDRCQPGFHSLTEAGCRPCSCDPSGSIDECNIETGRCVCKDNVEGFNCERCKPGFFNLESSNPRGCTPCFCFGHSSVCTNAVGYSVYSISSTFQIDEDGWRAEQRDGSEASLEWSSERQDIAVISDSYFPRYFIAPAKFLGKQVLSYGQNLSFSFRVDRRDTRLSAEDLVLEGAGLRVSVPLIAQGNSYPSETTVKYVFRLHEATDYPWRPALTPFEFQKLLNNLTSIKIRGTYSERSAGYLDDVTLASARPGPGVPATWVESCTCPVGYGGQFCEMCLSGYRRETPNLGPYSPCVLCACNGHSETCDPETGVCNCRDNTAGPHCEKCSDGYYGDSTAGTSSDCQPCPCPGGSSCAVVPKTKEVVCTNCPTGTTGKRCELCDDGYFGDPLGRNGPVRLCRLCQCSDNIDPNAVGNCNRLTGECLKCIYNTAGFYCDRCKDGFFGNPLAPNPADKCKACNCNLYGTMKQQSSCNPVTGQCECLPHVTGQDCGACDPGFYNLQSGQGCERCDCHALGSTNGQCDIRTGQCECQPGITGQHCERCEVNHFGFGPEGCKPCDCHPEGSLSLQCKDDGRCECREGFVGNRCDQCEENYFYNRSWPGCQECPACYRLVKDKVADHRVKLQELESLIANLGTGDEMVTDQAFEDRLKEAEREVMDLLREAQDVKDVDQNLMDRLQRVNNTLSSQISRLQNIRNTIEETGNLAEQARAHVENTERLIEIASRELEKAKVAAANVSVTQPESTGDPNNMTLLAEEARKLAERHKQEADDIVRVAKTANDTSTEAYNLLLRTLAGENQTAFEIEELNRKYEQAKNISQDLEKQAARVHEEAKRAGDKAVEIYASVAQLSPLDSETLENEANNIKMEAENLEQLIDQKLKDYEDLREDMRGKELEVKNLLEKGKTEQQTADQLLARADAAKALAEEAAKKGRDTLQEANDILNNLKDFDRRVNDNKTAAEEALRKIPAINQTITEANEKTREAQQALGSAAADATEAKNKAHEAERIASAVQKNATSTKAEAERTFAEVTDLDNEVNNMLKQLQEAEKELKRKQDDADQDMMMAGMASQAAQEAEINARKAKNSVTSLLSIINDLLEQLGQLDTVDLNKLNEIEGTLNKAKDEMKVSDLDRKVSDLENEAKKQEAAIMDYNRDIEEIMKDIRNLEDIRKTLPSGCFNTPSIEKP

The other results are listed elsewhere or left out. For some assays here: The exact form of the protein is not confirmed.

Among the test systems are KLHL20 (human); KLHL32 (human); KLK1 (human); KLK7 (human); KLK9 (human); KRAS (human); KRT8 (human); LACTB2 (human); LAS1L (human); LCN1 (human); LCP1 (human).
What all share (assay): protein microarray (ProtoArray v5.0), streptavidin-Alexa Fluor 647
What all share (details): 3'-biotin; 20 mM Tris (pH 7.5), 5 mM MgCl2, 100 mM KCl, 0.1% Tween-20, A/T-rich and random oligonucleotide blockers; temperature not stated; high values mean tight binding

Experiment [1] relates to KN motif and ankyrin repeat domain-containing protein 4 (human).
A further experiment deals with KRR1 (UniProt Q13601).
For experiment [2], the system named is Kelch-like ECH-associated protein 1 (human).
For experiment [3], the system named is Keratinocyte growth factor (human).
The subject of experiment [4] is Kinesin light chain 3 (human).
For experiment [5], the system named is Kinesin-like protein KIF26B (human).
Another experiment has as its target LAMC1 (UniProt P11047).
The target in a further experiment is LARP1 (UniProt Q6PKG0).
The target in a further experiment is T1, LARP7 (UniProt Q4G0J3).
T1 sequence: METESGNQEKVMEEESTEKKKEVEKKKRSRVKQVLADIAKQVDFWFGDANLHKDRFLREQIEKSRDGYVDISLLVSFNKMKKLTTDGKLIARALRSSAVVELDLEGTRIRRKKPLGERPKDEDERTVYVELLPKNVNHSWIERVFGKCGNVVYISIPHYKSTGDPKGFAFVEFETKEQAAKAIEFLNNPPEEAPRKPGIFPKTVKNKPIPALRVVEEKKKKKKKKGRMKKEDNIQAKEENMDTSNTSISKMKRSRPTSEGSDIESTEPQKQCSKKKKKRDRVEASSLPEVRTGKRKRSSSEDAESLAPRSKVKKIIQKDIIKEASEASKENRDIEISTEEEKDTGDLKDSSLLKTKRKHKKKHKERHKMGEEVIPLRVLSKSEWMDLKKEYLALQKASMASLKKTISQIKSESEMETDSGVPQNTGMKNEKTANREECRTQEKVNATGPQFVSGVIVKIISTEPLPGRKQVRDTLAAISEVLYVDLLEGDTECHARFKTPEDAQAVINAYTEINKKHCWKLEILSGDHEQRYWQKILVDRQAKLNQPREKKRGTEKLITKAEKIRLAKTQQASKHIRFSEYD

For “GGGGACAGGGGTATGGGGAGGGG [G4-3 biotinylated (CtG)]”, the binding signal with KLHL20 (human) was -0.326 z-score; in the experiment on KLHL32 (human), -0.342 z-score; in the experiment on KLK1 (human), -0.317 z-score; in the experiment on KLK7 (human) it was -0.312 z-score; in the experiment with KLK9 (human) it was -0.321 z-score; in experiment [1] it was -0.337 z-score. In addition, the binding signal was -0.324 z-score in the experiment on KRAS (human); 6.33 z-score in the experiment with KRR1; -0.334 z-score with KRT8 (human); -0.327 z-score in [2]; -0.331 z-score in [3]; -0.337 z-score in experiment [4]. For the same sequence, the binding signal was -0.31 z-score in experiment [5]; -0.336 z-score in the experiment with LACTB2 (human); 3.93 z-score with LAMC1; 4.71 z-score in the experiment with LARP1; 3.04 z-score with LARP7; -0.322 z-score with LAS1L (human). In addition, the binding signal in the experiment with LCN1 (human) is -0.336 z-score; in the experiment on LCP1 (human) it was -0.319 z-score.
